Results taken from patent US8846868B2, “Anti-AREG/HB-EGF antibodies and treatment” (Fusion Antibodies Limited, priority 2008, dated 2014).
No constants are given. Whether binding was seen depends on the method and setting. Binding can be weak; no strength is given. Each block holds one binder with its values, some of them ahead of it.

Target: recombinant HBEGF (human)
Experiment: ELISA, antibody on coated recombinant protein (HBEGF, AREGfg5, rAREG), FIG. 10

binding: binds
B1: 8d7 1f6 2b3 antibody (antibody, V domains shown)
VH: EVQLQQSGAELVRPGALVKLSCKASGFNIKDSYIHWVNQRPEQGLEWIGWIDPENGNTIYDPKFQGKASITADTSSNTAYLQLSSLTSEDTAVYYCVSASYRYGFSYWGQGTLVTVSA
VL: DIVMTQAAPSVPVTPGESVSISCRSNKSLLHTNGNTYLYWFLQRPGQSPQLLIYRMSNLASGVPDRFSGSGSGTAFTLRISRVEAEDVGVYYCMQHLEYPYTFGGGTKLEIKR

binding: binds
B2: 8d7 1f6 2f7 antibody (antibody, V domains shown)
VH: B1 VH
VL: B1 VL
